Measurements from doi:10.1101/759712.
These are yes or no findings as the source states them, for the method shown. Some binding calls cover weakened binding; strength is not graded here.

T1: SINE2 (SUN domain-interacting NE protein 2) (Arabidopsis thaliana) (UniProt Q9SQR5)
T1 sequence: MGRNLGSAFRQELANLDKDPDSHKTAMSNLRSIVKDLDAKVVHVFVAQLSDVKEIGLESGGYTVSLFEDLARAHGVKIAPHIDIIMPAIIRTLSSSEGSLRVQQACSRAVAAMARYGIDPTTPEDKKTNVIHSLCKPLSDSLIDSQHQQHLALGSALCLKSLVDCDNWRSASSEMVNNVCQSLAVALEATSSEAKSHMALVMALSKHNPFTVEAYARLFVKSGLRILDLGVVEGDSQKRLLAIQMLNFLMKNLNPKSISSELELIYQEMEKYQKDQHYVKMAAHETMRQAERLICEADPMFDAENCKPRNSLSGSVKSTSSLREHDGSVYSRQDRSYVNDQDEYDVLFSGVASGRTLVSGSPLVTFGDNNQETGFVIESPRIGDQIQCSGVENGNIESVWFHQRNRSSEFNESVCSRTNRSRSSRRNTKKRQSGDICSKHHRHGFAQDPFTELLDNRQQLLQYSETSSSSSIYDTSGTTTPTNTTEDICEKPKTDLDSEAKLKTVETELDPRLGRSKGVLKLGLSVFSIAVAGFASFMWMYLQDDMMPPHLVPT


Target: T1, SINE2 (SUN domain-interacting NE protein 2) (Arabidopsis thaliana)
Test: two-hybrid

Binder	binding
SINE1 (SUN domain-interacting NE protein 1) (protein, UniProt Q5XVI1 1-560) MGLNLNPILRQELANLDKDTESRKSAMKALKSYVKDLDSKAIPGFLAQVFETKETNSLSGEYTISLYEILARVHGPNIVPQIDTIMSTIVKTLASSAGSFPLQQACSKVIPAIARYGIDPTTTEDKKRVIIHSLCKPLTDSLLASQESLTSGAALCLKALVDSDNWRFASDEMVNRVCQNVVVALDSNSNQTHLQMGLVMSLAKHNPLIVEAYARLLIHTGLRILGFGVSEGNSQKRLSAVQMLNFLMKCLDPRSIYSEVELIIKEMERCQSDQMAYVRGAAYEAMMTSKRIAAELESKMEKGCRSVTGSNFSRRNCSSIVPDYSLSPESQTLGSFSGYDSPVESSPISHTSCNSEFDRRSVNRKLWRRDENGGVVDISLKDGLFSRVTKGSTTVSDSPLVPYDTCENGDEFEGFLMESLRNTTPSPQRQRSRRINAEDFNIFSTPRKLISSLQYPDDVDLDHSDIQSPILRGEREKTIGSRKNPKLRKQFPTMVETMSSTITVSEDTAQTQMITGKKKKKKMSYAKLVIAISFVVVALFATVILMVNQDDDVGYYTVPT	binds
SINE2 (SUN domain-interacting NE protein 2) (protein, UniProt Q9SQR5 1-554) MGRNLGSAFRQELANLDKDPDSHKTAMSNLRSIVKDLDAKVVHVFVAQLSDVKEIGLESGGYTVSLFEDLARAHGVKIAPHIDIIMPAIIRTLSSSEGSLRVQQACSRAVAAMARYGIDPTTPEDKKTNVIHSLCKPLSDSLIDSQHQQHLALGSALCLKSLVDCDNWRSASSEMVNNVCQSLAVALEATSSEAKSHMALVMALSKHNPFTVEAYARLFVKSGLRILDLGVVEGDSQKRLLAIQMLNFLMKNLNPKSISSELELIYQEMEKYQKDQHYVKMAAHETMRQAERLICEADPMFDAENCKPRNSLSGSVKSTSSLREHDGSVYSRQDRSYVNDQDEYDVLFSGVASGRTLVSGSPLVTFGDNNQETGFVIESPRIGDQIQCSGVENGNIESVWFHQRNRSSEFNESVCSRTNRSRSSRRNTKKRQSGDICSKHHRHGFAQDPFTELLDNRQQLLQYSETSSSSSIYDTSGTTTPTNTTEDICEKPKTDLDSEAKLKTVETELDPRLGRSKGVLKLGLSVFSIAVAGFASFMWMYLQDDMMPPHLVPT	binds weakly
